# Assay results: paper PMC8917353
# The chains behind the UniProt entries cited, without tags or fusion partners.
# UniProt P62834: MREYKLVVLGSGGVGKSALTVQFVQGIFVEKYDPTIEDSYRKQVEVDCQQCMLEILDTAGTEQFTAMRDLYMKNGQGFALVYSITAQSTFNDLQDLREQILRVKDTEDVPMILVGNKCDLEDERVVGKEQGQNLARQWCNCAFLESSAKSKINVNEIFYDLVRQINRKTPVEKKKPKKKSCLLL
# Results are given in words; binding and its absence hold for the method and conditions named. Binding seen in cells or lysates may run through a third protein. Some results given as binding are weak or reduced against the parent protein; the word gives no strength.
# Target: GST-Rap1a (UniProt P62834)
# Test: pull-down; 10 µg GST-Rap1a on GSH-Sepharose beads loaded with 1 mM GTPγS; 300 µg HEK293A lysate with mCherry-KRIT1 constructs, 5 mM DTT, 4°C overnight; washes in lysis buffer with 250 mM NaCl and 5 mM DTT; blot for KRIT1; only the target purified
row,Binder,binding
1,"mCherry-KRIT1-R452E MT-RE construct with a stop codon after the C-terminal cysteine of the lipid modification sequence (…) (protein, UniProt O00522 1-736) MGNPENIEDAYVAVIRPKNTASLNSREYRAKSYEILLHEVPIEGQKKKRKKVLLETKLQGNSEITQGILDYVVETTKPISPANQGIRGKRVVLMKKFPLDGEKMGREASLFIVPSVVKDNTKYTYTPGCPIFYCLQDIMRVCSESSTHFATLTARMLIALDKWLDERHAQSHFIPALFRPSPLERIKTNVINPAYATESGQTENSLHMGYSALEIKSKMLALEKADTCIYNPLFGSDLQYTNRVDKVVINPYFGLGAPDYSKIQIPKQEKWQRSMSSVTEDKERQWVDDFPLHRSACEGDSELLSRLLSERFSVNQLDSDHWAPIHYACWYGKVEATRILLEKGKCNPNLLNGQLSSPLHFAAGGGHAEIVQILLNHPETDRHITDQQGRSPLNICEENKQNNWEEAAKLLKEAINKPYEKVRIYRMDGSYRSVELKHGNNTTVQQIMEGMELSQETQQYFTIWICSENLSLQLKPYHKPLQHVRDWPEILAELTNLDPQRETPQLFLRRDVRLPLEVEKQIEDPLAILILFDEARYNLLKGFYTAPDAKLITLASLLLQIVYGNYESKKHKQGFLNEENLKSIVPVTKLKSKAPHWTNRILHEYKNLSTSEGVSKEMHHLQRMFLQNCWEIPTYGAAFFTGQIFTKASPSNHKVIPVYVGVNIKGLHLLNMETKALLISLKYGCFMWQLGDTDTCFQIHSMENKMSFIVHTKQAGLVVKLLMKLNGQLMPTERNSKKKPKKKSC",binds weakly
2,"mCherry-KRIT1-R452E with the negative lipidation control sequence (…) at the C-terminus (protein, UniProt O00522 1-736) MGNPENIEDAYVAVIRPKNTASLNSREYRAKSYEILLHEVPIEGQKKKRKKVLLETKLQGNSEITQGILDYVVETTKPISPANQGIRGKRVVLMKKFPLDGEKMGREASLFIVPSVVKDNTKYTYTPGCPIFYCLQDIMRVCSESSTHFATLTARMLIALDKWLDERHAQSHFIPALFRPSPLERIKTNVINPAYATESGQTENSLHMGYSALEIKSKMLALEKADTCIYNPLFGSDLQYTNRVDKVVINPYFGLGAPDYSKIQIPKQEKWQRSMSSVTEDKERQWVDDFPLHRSACEGDSELLSRLLSERFSVNQLDSDHWAPIHYACWYGKVEATRILLEKGKCNPNLLNGQLSSPLHFAAGGGHAEIVQILLNHPETDRHITDQQGRSPLNICEENKQNNWEEAAKLLKEAINKPYEKVRIYRMDGSYRSVELKHGNNTTVQQIMEGMELSQETQQYFTIWICSENLSLQLKPYHKPLQHVRDWPEILAELTNLDPQRETPQLFLRRDVRLPLEVEKQIEDPLAILILFDEARYNLLKGFYTAPDAKLITLASLLLQIVYGNYESKKHKQGFLNEENLKSIVPVTKLKSKAPHWTNRILHEYKNLSTSEGVSKEMHHLQRMFLQNCWEIPTYGAAFFTGQIFTKASPSNHKVIPVYVGVNIKGLHLLNMETKALLISLKYGCFMWQLGDTDTCFQIHSMENKMSFIVHTKQAGLVVKLLMKLNGQLMPTERNSKKKPKKKSSLLL",binds weakly
3,"mCherry-KRIT1 192APAA195 R452E (protein, UniProt O00522 1-736) MGNPENIEDAYVAVIRPKNTASLNSREYRAKSYEILLHEVPIEGQKKKRKKVLLETKLQGNSEITQGILDYVVETTKPISPANQGIRGKRVVLMKKFPLDGEKMGREASLFIVPSVVKDNTKYTYTPGCPIFYCLQDIMRVCSESSTHFATLTARMLIALDKWLDERHAQSHFIPALFRPSPLERIKTNVIAPAAATESGQTENSLHMGYSALEIKSKMLALEKADTCIYNPLFGSDLQYTNRVDKVVINPYFGLGAPDYSKIQIPKQEKWQRSMSSVTEDKERQWVDDFPLHRSACEGDSELLSRLLSERFSVNQLDSDHWAPIHYACWYGKVEATRILLEKGKCNPNLLNGQLSSPLHFAAGGGHAEIVQILLNHPETDRHITDQQGRSPLNICEENKQNNWEEAAKLLKEAINKPYEKVRIYRMDGSYRSVELKHGNNTTVQQIMEGMELSQETQQYFTIWICSENLSLQLKPYHKPLQHVRDWPEILAELTNLDPQRETPQLFLRRDVRLPLEVEKQIEDPLAILILFDEARYNLLKGFYTAPDAKLITLASLLLQIVYGNYESKKHKQGFLNEENLKSIVPVTKLKSKAPHWTNRILHEYKNLSTSEGVSKEMHHLQRMFLQNCWEIPTYGAAFFTGQIFTKASPSNHKVIPVYVGVNIKGLHLLNMETKALLISLKYGCFMWQLGDTDTCFQIHSMENKMSFIVHTKQAGLVVKLLMKLNGQLMPTERNS",binds weakly
4,"mCherry-KRIT1 MT-APAA-RE construct with a stop codon after the C-terminal cysteine of the lipid modification sequence (…) (protein, UniProt O00522 1-736) MGNPENIEDAYVAVIRPKNTASLNSREYRAKSYEILLHEVPIEGQKKKRKKVLLETKLQGNSEITQGILDYVVETTKPISPANQGIRGKRVVLMKKFPLDGEKMGREASLFIVPSVVKDNTKYTYTPGCPIFYCLQDIMRVCSESSTHFATLTARMLIALDKWLDERHAQSHFIPALFRPSPLERIKTNVIAPAAATESGQTENSLHMGYSALEIKSKMLALEKADTCIYNPLFGSDLQYTNRVDKVVINPYFGLGAPDYSKIQIPKQEKWQRSMSSVTEDKERQWVDDFPLHRSACEGDSELLSRLLSERFSVNQLDSDHWAPIHYACWYGKVEATRILLEKGKCNPNLLNGQLSSPLHFAAGGGHAEIVQILLNHPETDRHITDQQGRSPLNICEENKQNNWEEAAKLLKEAINKPYEKVRIYRMDGSYRSVELKHGNNTTVQQIMEGMELSQETQQYFTIWICSENLSLQLKPYHKPLQHVRDWPEILAELTNLDPQRETPQLFLRRDVRLPLEVEKQIEDPLAILILFDEARYNLLKGFYTAPDAKLITLASLLLQIVYGNYESKKHKQGFLNEENLKSIVPVTKLKSKAPHWTNRILHEYKNLSTSEGVSKEMHHLQRMFLQNCWEIPTYGAAFFTGQIFTKASPSNHKVIPVYVGVNIKGLHLLNMETKALLISLKYGCFMWQLGDTDTCFQIHSMENKMSFIVHTKQAGLVVKLLMKLNGQLMPTERNSKKKPKKKSC",binds weakly
